Not every detail of the peptide structures is certain; ends, links or a residue may be inferred. Square brackets hold non-standard residues; d marks the D form. Peptide text beside a SMILES is read from it. * marks the point of attachment. Piperidinyl(4-(1-Pro-OH)) = O=C(O)[C@@H]1CCCN1C1CCN(*)CC1; d(hArg) = N=C(N)NCCCC[C@@H](N)C(=O)O
How the values were obtained:
[1] = tested on: capsaicin-induced ocular pain; assay: Capsaicin-induced ocular pain, palpebral opening in rabbits; assay type: in vivo, albino New Zealand strain rabbits; details: Table VII, 10 mg/ml, 10-30 min. post capsaicin, five animals
[2] = tested on: acetic acid-induced writhing in mice; assay: Acetic acid-induced writhing assay in mice; assay type: in vivo, ICR mice
Text: 12: 525-562; Ramabadran and Bansinath (1986) Pharm. Res. 3: 263-270]. Intraperitoneal administration of dilute acetic acid solution causes a writhing behavior in mice. A writhe is defined as a contraction of the abdominal muscles accompanied by an extension of the forelimbs and elongation of the body. The number of writhes observed in the presence and absence of test compounds is counted to determine the analgesic activity of the compounds. […]
Male ICR mice, 23-37 grams in weight, were weighed and placed in individual observation chambers (usually a 4000 ml glass beaker) with a fine layer of SANI-CHIPS rodent bedding at the bottom. […] The number of writhes was counted over a 15-min period starting from the time of acetic acid injection, the data being collected over three separate 5 minute time periods (0-5 min, 5-10 min, and 10-15 min).
The data were reported as ED50, and Hill coefficient. […] The Hill coefficient is expressed as the arithmetic mean±sem calculated from the values obtained from the animals.
For dose-response analysis, raw data were converted to % maximum possible effect (% MPE) using the formula: % MPE=((test score−vehicle-treated score)/(0−vehicle-treated score))*100. Raw data were analyzed using a one-way ANOVA followed by Dunnett's post-tests. […]

Row | SMILES | Mean palpebral opening (% Control) [1] [% Control] | ED50 (mg/kg, iv, 15 min post-dose) ([2]; 15 min post-dose) [mg/kg] | % MPE (180 min post-ED90) ([2]; iv, 180 min post-ED90) [% MPE]
1 | CC(C)C[C@@H](NC(=O)[C@@H](Cc1ccccc1)NC(=O)[C@H](N)Cc1ccccc1)C(=O)N[C@H](CCCCN)C(=O)N1CCC(N2CCC[C@H]2C(=O)O)CC1 [Compound (4), D-Phe-D-Phe-D-Leu-D-Lys-[N-(4-piperidinyl)-L-proline]-OH] | 56.7 |  | 
2 | CC(C)C[C@@H](NC(=O)[C@@H](Cc1ccccc1)NC(=O)[C@H](N)Cc1ccccc1)C(=O)N[C@H](CCCCNC(=N)N)C(=O)N1CCC(N2CCC[C@H]2C(=O)O)CC1 [Compound (5), D-Phe-D-Phe-D-Leu-D-Har-[N-(4-piperidinyl)-L-proline]-OH] (H-[dF][dF][dL][d(hArg)]-{Piperidinyl(4-(1-Pro-OH))}) |  | 0.01 | 54 ± 10

Source: patent US9359399B2, “Synthetic peptide amides” (Cara Therapeutics, Inc., priority 2006, dated 2016)
